No constants are given. Whether binding was seen depends on the method and setting. Some results given as binding are weak or reduced against the parent protein; the word gives no strength. Sequences can lack the tags named with a protein.

The assay concerns the target T1, Fc fusion protein of human PRLR-ECD functional structural domain Fibronectin type-III 2 (129-229) (human) (UniProt P16471).
T1 sequence: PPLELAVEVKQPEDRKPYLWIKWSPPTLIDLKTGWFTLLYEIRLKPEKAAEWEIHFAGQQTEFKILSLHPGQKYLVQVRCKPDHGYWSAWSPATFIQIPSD
Kind of assay: Western blot, reductively denatured Fc fusion of the domain. Background: Immunoblotting shows a protein as a band on a membrane.

B1: murine-derived anti-human PRLR monoclonal antibody SPGA02-260 (antibody, V domains shown)
VH: QVQLKESGPGLVAPSQSLSITCTVSGFSLTRNGVSWVRQPPGKGLEWLGIIWGDGSTNYHSALISRLSISKDNSKSQVFLKLNSLQTDDTATYYCAKEGLYYYGRYFDVWGAGTTVTVSS
VL: DIVMTQSHKFMSTSVGDRVSITCKASQDVGSAVAWYQQKPGQSPKVLIYWASTRHTGVPDRFTGSGSGTDFTLTISNVQSEDLADYFCQQYSNYPLTFGGGTKLEIR
notes: Mouse monoclonal antibody purified from hybridoma supernatant by protein A; also called SPHA02-260
Consider B1, for which the binding entry was “binds”.

The values are drawn from patent US20250129173A1 (SHENYANG SUNSHINE PHARMACEUTICAL, published 2025).
